# Hit rate of the full screen: of about 52,000 sequences, about 210 (0.4%) were called active.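 Rule for the calls: active = gene whose silencing raises cell survival under the drug, median off-target-corrected z-score across its silencing RNAs 2 or more; inactive = the rest.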 The list shows a part of the results.
# Test: Resistance to Poly (ADP-Ribose) Polymerase inhibitor: Gene Identification via Genome-wide siRNA Screen
# Settings: mouse BRCA2 R2336H ES cells, olaparib, CellTiter-Glo viability; stronger effect = higher value
# Outline: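 Mouse BRCA2 R2336H ES cells were reverse-transfected with siRNA (20 nM final), treated at 48 h with 500 nM olaparib, and read by CellTiter-Glo after 72 h. Scores: MAD-based z per siRNA, median per gene, seed off-target correction.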
row,Sequence,z-score
1,GGAGAAUGUACAAAGGCUUTT against Slc7a13,inactive: -0.894
2,CCGUAGUUAUGAUACCAAUTT against Cyp3a25,inactive: 0.166
3,CCCUGUACCUAGCUCAAGATT against Ecel1,inactive: 0.957
4,GCAAGAUGGUAUCAGCAGATT against BC031781,inactive: -1.16
5,GGGAUAAACCUUCGCCAUATT against Fkrp,inactive: 0.202
6,GCUGAUGUCUCAACCUAGATT against 9430065N20Rik,inactive: 1.04
7,GGCGAUUCAAGGAGUUCCUTT against Mcm5,inactive: -0.256
8,GGGAACCAAACUGUCAUCUTT against MOR135-11,inactive: 0.3
9,GGCAUGGAAUAUGAUGUUATT against Nalp9b,inactive: -2.18
10,GGUGAUGGAAAUAAACUACTT against BC003479,inactive: -0.039
11,GGUCACAGAAUCGGUUUCATT against 0610039D01Rik,inactive: -1.9
12,CGAUGAUACAGUUUAUCUCTT against Pon2,inactive: -0.303
13,CCUAGAGUCUCAGGACUGUTT against MGI:1923902,inactive: -0.361
14,GGAUGAGGAUUUUGAGAACTT against Arhgef1,inactive: 0.573
15,GGAUCACUUGAUUGAUCCUTT against Slc15a3,inactive: 0.391
16,GGAAUCUCCAUUUGUAUUGTT against Calml3,inactive: 0.172
17,GGAGGAUCCACAUGAUGACTT against BC044804,inactive: -0.604
18,GGAAAAUGGAGAACUAAAGTT against Uxs1,inactive: 0.148
19,GCAAACUGCGCAGUUCUUGTT against Gad1,inactive: 1.22
20,GGUUUCAUCUGUUGGAAUUTT against Meis1,inactive: -0.151
21,GGAGAAAAAGCACCAAUGUTT against Plag1,inactive: 0.906
22,GGCAGCAGCAACAGCAGAATT against Slc36a3,inactive: -0.805

# Reformatted with tabs: entries from further up
row	Sequence	z-score
12	CGAUGAUACAGUUUAUCUCTT against Pon2	inactive: -0.303
13	CCUAGAGUCUCAGGACUGUTT against MGI:1923902	inactive: -0.361
14	GGAUGAGGAUUUUGAGAACTT against Arhgef1	inactive: 0.573
15	GGAUCACUUGAUUGAUCCUTT against Slc15a3	inactive: 0.391

# Continued.

row,Sequence,z-score
1,GCAAAUUCCAGUGAAAGCCTT against Papola,inactive: 0.939
2,GCCAGUGUGACAUUUGGUATT against Eed,inactive: -0.563
3,GGCAAAAACCCAGAGGACCTT against Mut,inactive: -0.0534
4,GUGCACGAUCUGAUUGGUGTT against Pfn3,inactive: -0.0523
5,GGAUUUGACCAGUAUAAGUTT against Ptgs2,inactive: -1.48
6,GGGCCAAUAUGUUUGAGUATT against 2310040C09Rik,inactive: 0.225
7,GCAUGCACUUAAGAUUCUATT against 2310010M24Rik,inactive: -0.0447
8,CCUAUAUGACAAAAGACAGTT against Glra2,inactive: 0.145
9,CCUGAGACCGAAUUUUACCTT against Cer1,inactive: 0.209
10,GGACAAUGAGAUUCUUCUCTT against 1810030J14Rik,inactive: -0.844
11,GGAAAAUCUGGAGUUCUUCTT against Npas1,inactive: 0.277
12,GCCCAUAUGAUCACAGUCGTT against Ptpn2,inactive: -1.03
13,GGCAAUUGUACAGGAGAUUTT against BC026978,inactive: -0.51
14,GCCCAAAAAGGAAUUAAUUTT against Pak3,inactive: 0.77
15,GGAAAACGUGAUUUACACATT against Fcrh3,inactive: -0.23
16,GGAGGACCUGAAGCUUCAGTT against 0610039N19Rik,inactive: 0.473
17,GGCCUGAGCUUUUUAACACTT against 2310046K01Rik,inactive: -0.0822
18,GGAACACCAUCAAUAAACUTT against Tjp4,inactive: 0.135
19,CGCACCUUUCUUUGGAAUGTT against Rab1b,inactive: 0.348
20,GGAAUCACAAGGUAUUUUCTT against Spo11,inactive: 1.2
21,GGCCAGCAGAUAUAUAGAGTT against D0H8S2298E,inactive: 0.603
22,GCAGGUUUGUAUUGUAACUTT against Abi1,inactive: -1.86

row,Sequence,z-score
1,GGCCAUGUUCCACACAUUATT against Grm1,inactive: -0.583
2,GCUAGCCAAAAAAAUCCGGTT against B430218L07Rik,inactive: 1.41
3,GGAAGCUGUGGAGAAACUATT against Acox2,inactive: 1.02
4,GGUGCUGGAGUUGACCAGUTT against Cebpa,inactive: 0.696
5,GCAUUCAUUGAUCAAUUCUTT against Zfp482,inactive: -0.0688
6,GCGUAAAUAAGUGUCAGAATT against Emp2,inactive: -0.0995
7,GACAAGAAGCAGAUGACUGTT against Olig2,inactive: -0.352
8,GGCCAAACAGCCAAAUUCUTT against Rps23,inactive: -2.16
9,GGAAUGAUUUUUGUUUGCUTT against Sf3b3,inactive: 2.2
10,GGGAAAACACAAAGAAGAATT against Angpt1,inactive: -0.869
11,GGAUUUUGAAGAGGAGUCGTT against Mpp3,inactive: 0.396
12,GGAAUAUGAAGCAUAAGUGTT against 1810011O10Rik,inactive: 0.322
13,GGCUUCGACGUGACUCAUCTT against Tcte2,inactive: 0.0514
14,GGAAUUCAUCCACAUACUGTT against Actr10,inactive: -1.38
15,CCUCUACAUAUUAUGGAAATT against Dpp9,inactive: -0.0115
16,GUCAAGCUGGCCAAACAUATT against Rps19,inactive: -3.27
17,GGAAGCACGUUGGAAGGAUTT against Olfr845,inactive: -0.171
18,CCAAUAUGAGACCAUCAUUTT against Sv2b,inactive: -0.966
19,GCCCUUUGACAAUUUGUUUTT against 1300002K09Rik,inactive: 0.808
20,CGGGUGCUAAAAUGUCUAUTT against Khdrbs2,inactive: -0.629
21,GGCAUCUAUGACAAGUUUGTT against 1700014P03Rik,inactive: 1.19
22,GGCAAACUUAUCUUCUUCUTT against Ahsa1,inactive: 0.458

# From PubChem BioAssay AID1347423 (Functional Genomics Laboratory (NCATS/FGL), 2020)
